# Measured data: PubChem BioAssay AID493246 (Drosophila RNAi Screening Center, 2011)
# Aim: 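Identify essential fly genes by loss of cell viability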 (primary screen)
# Cell system: Drosophila Kc and S2R+ cells
# Reagents: long dsRNA against Drosophila genes
# Measured: 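Cell number per well after knock-down, printed as raw plate values; calls were based on per-plate z-scores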
# Direction: Kc cell number and S2R+ cell number: higher = more cells remaining
# Hit rule: 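Counted as a hit if cell number falls by a z-score of at least 3 within its plate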
# The deposit covers about 21,000 reagents; this is a random part of those that have a named target and a result. In the full data, 429 (2%) are marked active. 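Values are raw and not normalised between plates; calls rest on per-plate z-scores that were not deposited.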 Entries without a mark were called inactive. Reagents against one gene are numbered here. Names joined by + are all predicted targets of the reagent. Not given: the amount of reagent, the time to read-out.
target,reagent no.,"Kc cell number, rep 1","Kc cell number, rep 2","S2R+ cell number, rep 1","S2R+ cell number, rep 2"
CG42780,1,1.45e6,1.75e6,1.02e6,1.15e6
CG1288,1,1.43e6,1.44e6,1.22e6,1.34e6
CG14109,1,1.26e6,1.20e6,1.29e6,1.41e6
CG12783,1,1.43e6,1.46e6,1.18e6,1.35e6
tomboy40,1,1.39e6,1.40e6,1.14e6,1.21e6
PH4alphaSG1,1,1.42e6,1.44e6,9.70e5,1.09e6
atilla,1,1.65e6,1.58e6,1.34e6,1.45e6
CG6961 + CG18259,1,1.48e6,1.47e6,1.05e6,1.13e6
CG6961 + CG18259,2,1.63e6,1.69e6,1.08e6,1.19e6
CG12025,1,1.42e6,1.40e6,1.09e6,1.34e6
Cyp6a9,1,1.76e6,1.94e6,1.49e6,1.60e6
CG16970 (retired record),1,1.45e6,1.48e6,1.01e6,1.09e6
CG16970 (retired record),2,1.56e6,1.58e6,1.30e6,1.46e6
CG12099,1,1.70e6,1.69e6,1.05e6,1.50e6
BoYb,1,1.53e6,1.56e6,1.27e6,1.34e6
IFT57,1,1.49e6,1.37e6,1.12e6,1.30e6
squ,1,1.41e6,1.47e6,9.47e5,1.13e6
CG15638,1,1.52e6,1.64e6,1.19e6,1.32e6
CG16782,1,1.52e6,1.57e6,1.08e6,1.27e6
UQCR-C1,1,1.50e6,1.52e6,8.15e5,9.64e5
CNT2,1,1.33e6,1.32e6,1.11e6,1.24e6
CG5167,1,1.39e6,1.52e6,1.36e6,1.45e6
HDAC3,1,1.63e6,1.71e6,1.29e6,1.35e6
Rsbp15,1,1.77e6,1.77e6,1.38e6,1.50e6
spz4,1,1.62e6,1.66e6,1.14e6,1.28e6
HipHop,1,1.60e6,1.64e6,1.25e6,1.31e6
onecut,1,1.59e6,1.67e6,1.06e6,1.12e6
GatA,1,1.52e6,1.61e6,1.15e6,1.23e6
Ccn,1,1.42e6,1.56e6,1.12e6,1.24e6
Ccn,2,1.31e6,1.42e6,9.73e5,1.14e6
Ccn,3,1.58e6,1.53e6,1.24e6,1.27e6
Ccn,4,1.54e6,1.77e6,1.31e6,1.51e6
CG42369,1,1.54e6,1.61e6,1.07e6,1.24e6
His-Psi:CR31616 + His-Psi:CR31615,1,2.39e5 (active),,3.91e5,
Past1,1,1.79e6,1.85e6,1.39e6,1.55e6
CG12419 (retired record),1,1.50e6,1.52e6,1.36e6,1.44e6
CG13028,1,1.41e6,1.54e6,1.33e6,1.35e6
CG8004,1,1.50e6,1.58e6,1.21e6,1.26e6
Tdh,1,1.89e6,1.92e6,1.18e6,1.30e6
Taf9,1,1.72e6,1.81e6,1.10e6,1.24e6
Ca-alpha1T,1,1.52e6,1.49e6,1.08e6,1.18e6
Ca-alpha1T,2,1.39e6,1.40e6,1.05e6,1.17e6
Ca-alpha1T,3,1.55e6,1.53e6,1.10e6,1.19e6
Ca-alpha1T,4,1.60e6,1.58e6,1.05e6,1.22e6
Obp56a,1,1.53e6,1.60e6,1.12e6,1.26e6
Nepl20,1,1.54e6,1.58e6,1.10e6,1.18e6
CG14340,1,1.45e6,1.53e6,9.94e5,1.11e6
CG11714,1,1.32e6,1.39e6,1.13e6,1.06e6
mmy,1,1.25e6,1.30e6,7.20e5,8.69e5
Jhe,1,1.49e6,1.52e6,1.13e6,1.26e6
LpR2,1,1.08e6,1.35e6,1.04e6,1.05e6
LpR2,2,1.06e6,1.40e6,1.09e6,1.02e6
LpR2,3,4.92e5,,7.66e5,
LpR2,4,1.49e6,1.52e6,9.41e5,1.05e6
Mi-2 + Su(Tpl),1,1.39e6,1.45e6,1.11e6,1.27e6
Kyat,1,1.62e6,1.67e6,1.26e6,1.40e6
CG33223,1,1.38e6,1.56e6,1.04e6,1.06e6
CG14370,1,1.37e6,1.36e6,1.14e6,1.23e6
CG8010,1,1.61e6,1.63e6,1.12e6,1.24e6
ple,1,1.55e6,1.54e6,7.94e5,9.11e5
eEF1gamma,1,1.34e6,1.43e6,7.43e5,8.16e5
CG31111,1,1.39e6,1.41e6,7.63e5,8.53e5
AQP,1,1.52e6,1.50e6,1.19e6,1.24e6
LysD + LysC (retired record),1,1.42e6,1.36e6,9.98e5,1.28e6
Fbxl4,1,5.75e5,,6.75e5,
CG7011 + Prp31,1,1.86e6,1.93e6,1.24e6,1.31e6
CG4168,1,1.52e6,1.61e6,1.00e6,1.21e6
CG4168,2,1.57e6,1.61e6,1.03e6,1.31e6
CG4168,3,1.31e6,1.33e6,1.26e6,1.26e6
CG42538,1,1.36e6,1.48e6,1.14e6,1.27e6
CG2111,1,1.64e6,1.64e6,1.03e6,1.16e6
CG14883,1,1.45e6,1.56e6,1.02e6,1.13e6
Cib2,1,1.52e6,1.64e6,1.32e6,3.95e5
CG30395,1,5.77e5,,8.81e5,
mbm + CG11555,1,1.63e6,1.63e6,1.10e6,1.28e6
